Data as given in PubChem BioAssay AID1259284 (Sanger Institute, 2017).

- Purpose: 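Kinase knock-downs that cut colorectal cancer cell growth alone or with targeted drugs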 (primary screen)
- Cell system: SW48 human colorectal cancer cells
- Reagent: siRNA pool against human genes
- Treatment: anchor drug BYL719 at 1 µM, cetuximab at 5 µg/ml or trametinib at 10 nM, or DMSO vehicle alone
- Measurement: 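Viability scaled to non-targeting control pool, robust z-score from controls, and synergy scores for each drug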
- Scale: robust z-score, no drug: higher = more cells survive knock-down; viability, no drug: higher = more viable cells; synergy with BYL719 and synergy with trametinib and synergy with cetuximab: higher = stronger combined killing with drug
- Active means: 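a knock-down is essential if viability without drug gives a robust z-score under -3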
- Calls: active = essential without drug; inactive = no change without drug
Here is one part, drawn at random, of 794 deposited reagents. Of all reagents, 16 (2%) got an active call. 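Calls concern knock-down without drug only; drug synergy was judged apart, with scores above 0.15 taken as synergy.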 A number with no mark means an inactive call. No viability above 1 is reported: the scale is capped. The record does not give: the amount of reagent, the time to read-out.

The opening 4 entries, ahead of the listing:
Gene	robust z-score, no drug	viability, no drug (fraction of control)	synergy with BYL719	synergy with trametinib	synergy with cetuximab
COASY	0.212	0.982	-0.0633	0.158	0.0145
FGFR2	0.426	1	0.00781	0.0298	-0.000395
TTBK2	-0.702	0.903	-0.119	-0.018	-0.0327
ERN2	0.426	1	-0.101	-0.0943	-0.0168

Main list, from the start:
Gene	robust z-score, no drug	viability, no drug (fraction of control)	synergy with BYL719	synergy with trametinib	synergy with cetuximab
COASY	0.212	0.982	-0.0633	0.158	0.0145
FGFR2	0.426	1	0.00781	0.0298	-0.000395
TTBK2	-0.702	0.903	-0.119	-0.018	-0.0327
ERN2	0.426	1	-0.101	-0.0943	-0.0168
CRKL	0.426	1	-0.291	-0.138	-0.165
EPHA7	0.426	1	-0.0369	0.0465	-0.136
TSSK4	0.426	1	-0.0998	0.00147	-0.0822
PIP5K1B	-2.14	0.78	0.0184	0.00827	-0.0246
PRAG1	0.426	1	-0.0574	0.0355	0.0329
PTK7	-0.879	0.888	-0.118	0.0288	-0.148
ACVR2A	0.426	1	-0.0556	-0.0964	-0.165
MKNK2	0.426	1	-0.228	-0.112	-0.104
CAMK1D	-0.274	0.94	-0.19	-0.167	-0.0763
AURKA	-7.92 (active)	0.284	-0.075	-0.0675	-0.222
BMPR1A	0.426	1	-0.218	0.0166	-0.0923
RPS6KA5	-1.52	0.833	-0.157	0.0429	-0.185
RIPK3	0.426	1	-0.129	-0.243	-0.108
CKMT2	0.426	1	-0.169	-0.0902	-0.0212
EPHA5	0.426	1	-0.292	-0.244	-0.165
PFKL	0.426	1	-0.194	-0.124	-0.0926
PIK3R1	0.426	1	-0.295	-0.173	-0.165
PRKAR1A	0.426	1	-0.189	0.00131	-0.126
FLT4	0.426	1	-0.212	-0.0791	-0.165
SF3B1	-2.46	0.752	-0.19	0.0659	-0.0302
DLG4	0.426	1	-0.154	-0.113	-0.165
MAPK12	0.426	1	-0.241	-0.149	-0.165
PLK3	0.426	1	-0.254	-0.32	-0.165
NTN4	-1.72	0.816	-0.18	-0.14	-0.116
PIK3C2A	-1.2	0.86	-0.165	0.0853	-0.128
NRK	0.426	1	-0.217	-0.13	-0.165
TCF12	0.319	0.991	-0.0221	-0.0577	0.0243
TYK2	0.426	1	-0.367	-0.298	-0.165
GALK2	-0.754	0.899	0.022	0.108	0.139
EPHA6	-4.44 (active)	0.582	-0.0966	-0.144	-0.0376
VRK1	0.426	1	-0.21	-0.0219	-0.0683
PGK2	0.426	1	-0.367	-0.252	-0.165
GUCY2EP	0.426	1	-0.0908	0.0178	0.047
PIP4K2A	0.426	1	-0.367	-0.242	-0.165
TP53RK	0.426	1	-0.0975	-0.204	-0.0441
CAMK2D	0.426	1	-0.272	-0.148	-0.111
WNK3	0.426	1	-0.288	-0.0815	-0.0947
TSSK2	0.289	0.988	-0.0464	0.0567	-0.0171
PRKD2	0.426	1	-0.333	-0.151	-0.165
PKN2	-0.534	0.918	-0.21	-0.0391	-0.124
BCOR	0.426	1	-0.142	-0.0124	-0.0386
PTK2	0.426	1	-0.0905	0.0052	0.0409
IKBKG	0.426	1	-0.00504	0.0835	0.0538
BUB1	0.426	1	-0.0942	-0.303	0.0639
TEX14	0.0631	0.969	-0.104	-0.0814	-0.191
PTK6	0.426	1	-0.00245	0.00984	0.00652
